The results in this text go back to article PMC7913900.

The target of assay [1] is T1, nLUC-OsSnRK1A (rice (Oryza sativa L.)) (UniProt Q852Q2).
T1 sequence: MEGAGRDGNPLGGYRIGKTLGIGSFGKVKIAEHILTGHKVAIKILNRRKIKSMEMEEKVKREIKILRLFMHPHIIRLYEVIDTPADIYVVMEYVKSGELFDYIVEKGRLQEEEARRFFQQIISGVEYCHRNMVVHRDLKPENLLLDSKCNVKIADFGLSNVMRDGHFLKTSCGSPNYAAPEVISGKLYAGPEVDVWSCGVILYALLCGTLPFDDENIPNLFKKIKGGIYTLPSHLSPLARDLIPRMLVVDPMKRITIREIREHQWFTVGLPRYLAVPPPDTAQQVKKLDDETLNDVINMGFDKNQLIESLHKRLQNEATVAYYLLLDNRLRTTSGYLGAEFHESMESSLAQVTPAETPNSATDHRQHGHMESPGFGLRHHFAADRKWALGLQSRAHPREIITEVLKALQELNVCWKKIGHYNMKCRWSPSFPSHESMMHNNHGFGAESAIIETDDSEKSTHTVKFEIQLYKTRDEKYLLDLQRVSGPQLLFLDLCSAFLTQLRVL
Briefly: split reporter; firefly luciferase complementation imaging; nLUC and cLUC fusions co-infiltrated into N. benthamiana leaves; 1 mM luciferin, cooled CCD imaging.

Assay [2] addresses T2, p2YN-OsSnRK1A (rice (Oryza sativa L.)) (UniProt Q852Q2).
T2 sequence: T1 sequence
Briefly: split reporter; BiFC with split YFP (p2YN, p2YC) co-expressed in N. benthamiana leaves; confocal microscopy after two days.

Assay [3] has as its target T3, MBP-SnRK1A (rice (Oryza sativa L.)) (UniProt Q852Q2).
T3 sequence: T1 sequence
Kind of assay: pull-down; 15 ug SnRK1A-MBP or MBP on MBP-Tag Dextrin Resin at 4 C for 2 h, then 40 ug OsSAUR33-GST overnight at 4 C; washed with PBS + 1% Triton 100 and with PBS; western blot with anti-GST; both purified.

Results are given in words; binding and its absence hold for the method and conditions named. Binding can be weak; no strength is given. For part of these data: Sequences can lack the tags named with a protein. For part of these data: In cells and extracts the contact can be indirect.

cLUC-OsSAUR33 (rice (Oryza sativa L.)): the binding entry in assay [1] is recorded as “binds”. For p2YC-OsSAUR33 (rice (Oryza sativa L.)), in assay [2], the binding entry was “binds”. Take GST-OsSAUR33 (rice (Oryza sativa L.)): in assay [3], the binding entry is listed as “binds”.
